Patent US20260382581A1, “COMPOSITIONS COMPRISING CYTISINE IN THE TREATMENT AND/OR PREVENTION OF ADDICTION IN SUBJECTS IN NEED THEREOF” (published 2026)
Some entries of the source have several records that differ or are many. The other results are left out here. There may be further records. The values listed for one entry differ for a reason that is not stated; some may be repeats, others may stem from another dose, organism or construct than stated.

Tests used:
adult smokers = test: ORCA-1: CO-confirmed quit rate at Week 4 and continuous abstinence Weeks 5-8; conditions: 3.0 mg TID vs placebo; listed as cytisine
Description: This was a six-arm, multi-center, double-blind, randomized, placebo-controlled study conducted in male or female adults≥18 years of age, smoking 10+ cigarettes daily, and willing to set a quit date that is 5-7 days after randomization. This study was designed to evaluate the effectiveness of 1.5 mg of cytisine versus placebo using the commercial titration schedule approved in Central and Eastern Europe. The study also evaluated the effectiveness of a simplified TID dosing schedule for 1.5 mg and an increased dose of 3.0 mg (using both the commercial titration (COM) and simplified TID dosing schedules). The overall goal of the study was to obtain estimates of effect size for efficacy and safety endpoints that will be used to inform the design of future Phase 3 studies.
The secondary efficacy endpoint was the quit rate (confirmed by CO<10 ppm) and included an analysis at week 4 (i.e., the end of treatment) and sustained (4-week) abstinence from Week 5 to Week 8 (i.e., off treatment).
The primary outcome (Cigarette Score) and the main secondary abstinence outcomes were subjected to sensitivity analyses. The main secondary abstinence outcomes were the initial quit rate at Week 4 and continued 4-week abstinence through Week 5 to Week 8, confirmed by expired carbon monoxide (CO) of <10 ppm designated as Cess/W5-8/CO Success. […]

[1] = system: adult users of nicotine e-cigarettes; test: claude (Example 3): vaping cessation from Week 9 to Week 12 (primary endpoint; odds ratios, relative risks, risk differences, exact tests); conditions: vaping cessation Week 9 to 12, Table 61 (all, N = 160), vs placebo; listed as Cytisinicline
Description: This Example describes a Phase 2 ORCA-V1 trial evaluated 160 adult e-cigarette users at 5 clinical trial locations in the United States. The trial completed enrollment in approximately 4 months. ORCA-V1 participants were randomized to receive 3 mg cytisinicline three times daily or placebo for 12 weeks in combination with standard cessation behavioral support. The dose and administration of cytisinicline in the ORCA-V1 study is identical to that used in the Phase 3 registrational trials for smoking cessation.
To evaluate cytisinicline as an aid to vaping cessation in adult users of nicotine e-cigarettes who intend to quit, a multi-center, double-blind, randomized, placebo-controlled study was conducted. Subjects were randomized 2:1 (100 cytisinicline: 50 Placebo) with 160 total randomized (FIG. 56). Subjects were stratified on whether they have smoked>100 cigarettes in their lifetime (yes vs no) (FIG. 57). Study size will have 95% power to detect a ~19% reduction in cotinine levels from baseline. Odds ratio (95% confidence interval) will exclude one when cytisinicline abstinence success is >18%; Example, a 6% placebo rate versus 18% outcome or odds ratio of 3.44 will be significant. Missing data may be assumed as reported vaping. […]
Primary Marginal and Secondary Outcomes: the primary outcome analysis (not stratified) and the secondary outcomes are analyzed using Fisher's exact test. […]

Question: Which “OR, abstinence Weeks 5 to 8” value (adult smokers) does the source give for `O=c1cccc2n1C[C@@H]1CNC[C@H]2C1` here?
Answer: 5.04 (95% CI: 1.42, 22.32) and 5.04

Question: And the “OR, quit rate at Week 4” value (adult smokers)?
Answer: 6.31 (95% CI: 2.28, 18.45) and 6.31

Question: What about the “Odds Ratio” value [1] of the same molecule?
Answer: 2.6199 and Odds Ratio = 2.6199
